Literature values, collected in patent publication US12097210B2, “Concomitant administration of glucocorticoid receptor modulators and CYP3A inhibitors” (Corcept Therapeutics, Inc., priority 2017, dated 2024).
Some entries share one result that the patent states for a list of compounds.

System: CYP3A
Settings: U.S. FDA report, strong CYP3A inhibitors; cited from earlier work

In the case of `CCC(C)n1ncn(-c2ccc(N3CCN(c4ccc(OCC5COC(Cn6cncn6)(c6ccc(Cl)cc6Cl)O5)cc4)CC3)cc2)c1=O` (centres unmarked) [itraconazole], the “increase of AUC of sensitive CYP3A substrates” value is given as “more than 10 fold”.
In the case of `CC(C)(C)NC(=O)N[C@H](C(=O)N1C[C@H]2[C@@H]([C@H]1C(=O)NC(CC1CCC1)C(=O)C(N)=O)C2(C)C)C(C)(C)C` (some centres unmarked) [boceprevir], the “increase of AUC of sensitive CYP3A substrates” value is listed as “more than 10 fold”.
